Results are given in words; binding and its absence hold for the method and conditions named. Some binding calls cover weakened binding; strength is not graded here.
Target: human TRiC subunit CCT5 (human) (UniProt P48643)
Experiment: native MS; hTRiC in ammonium acetate pH 7.5 disrupted with 25% (v/v) DMSO, analysed within 30 min; dimers assigned by mass within 12 Da; both purified

By UniProt entry, the sequences of proteins in these tests, tags left out. Residues count along the entry.
UniProt P48643, residues 2-541: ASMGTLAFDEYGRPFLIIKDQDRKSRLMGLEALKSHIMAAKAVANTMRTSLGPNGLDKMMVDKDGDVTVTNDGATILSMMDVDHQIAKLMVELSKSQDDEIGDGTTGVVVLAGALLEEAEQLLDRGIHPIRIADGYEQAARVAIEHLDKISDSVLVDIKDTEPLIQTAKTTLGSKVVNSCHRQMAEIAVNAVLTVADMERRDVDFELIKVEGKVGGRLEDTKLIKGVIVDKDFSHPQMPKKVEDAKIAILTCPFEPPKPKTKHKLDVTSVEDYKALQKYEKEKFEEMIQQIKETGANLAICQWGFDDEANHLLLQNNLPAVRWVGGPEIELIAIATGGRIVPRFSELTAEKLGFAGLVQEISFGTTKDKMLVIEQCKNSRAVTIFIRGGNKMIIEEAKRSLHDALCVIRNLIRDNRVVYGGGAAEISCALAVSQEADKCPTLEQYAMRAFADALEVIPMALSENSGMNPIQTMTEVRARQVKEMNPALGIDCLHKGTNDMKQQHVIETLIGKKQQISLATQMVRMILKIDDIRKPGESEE

B1: human TRiC subunit CCT4 (natural protein, UniProt P50991 2-539, looked up)
chain: PENVAPRSGATAGAAGGRGKGAYQDRDKPAQIRFSNISAAKAVADAIRTSLGPKGMDKMIQDGKGDVTITNDGATILKQMQVLHPAARMLVELSKAQDIEAGDGTTSVVIIAGSLLDSCTKLLQKGIHPTIISESFQKALEKGIEILTDMSRPVELSDRETLLNSATTSLNSKVVSQYSSLLSPMSVNAVMKVIDPATATSVDLRDIKIVKKLGGTIDDCELVEGLVLTQKVSNSGITRVEKAKIGLIQFCLSAPKTDMDNQIVVSDYAQMDRVLREERAYILNLVKQIKKTGCNVLLIQKSILRDALSDLALHFLNKMKIMVIKDIEREDIEFICKTIGTKPVAHIDQFTADMLGSAELAEEVNLNGSGKLLKITGCASPGKTVTIVVRGSNKLVIEEAERSIHDALCVIRCLVKKRALIAGGGAPEIELALRLTEYSRTLSGMESYCVRAFADAMEVIPSTLAENAGLNPISTVTELRNRHAQGEKTAGINVRKGGISNILEELVVQPLLVSVSALTLATETVRSILKIDDVVNTR
notes: CCT4 subunit of human TRiC; initiator methionine removed, proline exposed, not acetylated (from the measured mass); also called CCTδ; source: Hi5 (Trichoplusia ni) cells, baculovirus pYC35 co-expressing CCT1-8; purified as hTRiC (calmodulin resin, monoQ, SEC); released by RP-HPLC or by 25% DMSO or methanol
- binding: binds

From publication PMC8219831, “Native mass spectrometry analyses of chaperonin complex TRiC/CCT reveal subunit N-terminal processing and re-association patterns” (Scientific Reports, 2021)
